Holding throughout (assay): log2 fold change, soluble protein after heating vs DMSO (PISA); higher = thermal stabilisation; K562 lysate, 10 uM; active = over 0.2 and 3.5 SD of the protein, either way, in both replicates (recomputed)
Compound in one test: CCCS(=O)(=O)Nc1ccc(F)c(C(=O)c2c[nH]c3ncc(-c4ccc(Cl)cc4)cc23)c1F [vemurafenib]
The procedure, abridged: (§1)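 K562 pellets were dounce-homogenised in PBS pH 7.4 with 1 mM MgCl2, and the crude extract at 1 mg/mL protein was treated with 10 μM compound for 30 min. Aliquots were heated for 3 min across 48°C-58°C, pooled, and brought to 0.5% NP-40 at 4°C; soluble protein was the supernatant after 21,000xg for 90 min. Soluble protein was quantified by TMTpro 16plex LC-MS/MS with channel sums equalised, and reported as log2 fold change in thermal stability against DMSO controls, with values from duplicates.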

Chains of the proteins cited; added tags and fusions are not shown. Lines headed by an entry give the natural chain unless they say otherwise; changes in a name come on top.
UniProt O43353, whole entry, looked up: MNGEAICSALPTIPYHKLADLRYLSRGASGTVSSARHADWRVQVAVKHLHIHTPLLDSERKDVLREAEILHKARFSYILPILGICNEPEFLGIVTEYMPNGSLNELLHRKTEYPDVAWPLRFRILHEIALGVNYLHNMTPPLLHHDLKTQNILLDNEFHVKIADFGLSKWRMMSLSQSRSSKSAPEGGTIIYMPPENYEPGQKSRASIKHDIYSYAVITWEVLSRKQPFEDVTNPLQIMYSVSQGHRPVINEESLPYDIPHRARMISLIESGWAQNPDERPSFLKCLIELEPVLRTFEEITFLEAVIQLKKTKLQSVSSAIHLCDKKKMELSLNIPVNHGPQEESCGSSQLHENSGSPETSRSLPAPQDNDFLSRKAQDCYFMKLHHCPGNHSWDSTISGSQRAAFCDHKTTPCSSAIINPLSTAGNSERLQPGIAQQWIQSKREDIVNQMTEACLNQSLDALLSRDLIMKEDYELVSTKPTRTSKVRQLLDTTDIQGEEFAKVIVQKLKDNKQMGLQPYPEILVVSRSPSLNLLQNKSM
UniProt Q5VTB9: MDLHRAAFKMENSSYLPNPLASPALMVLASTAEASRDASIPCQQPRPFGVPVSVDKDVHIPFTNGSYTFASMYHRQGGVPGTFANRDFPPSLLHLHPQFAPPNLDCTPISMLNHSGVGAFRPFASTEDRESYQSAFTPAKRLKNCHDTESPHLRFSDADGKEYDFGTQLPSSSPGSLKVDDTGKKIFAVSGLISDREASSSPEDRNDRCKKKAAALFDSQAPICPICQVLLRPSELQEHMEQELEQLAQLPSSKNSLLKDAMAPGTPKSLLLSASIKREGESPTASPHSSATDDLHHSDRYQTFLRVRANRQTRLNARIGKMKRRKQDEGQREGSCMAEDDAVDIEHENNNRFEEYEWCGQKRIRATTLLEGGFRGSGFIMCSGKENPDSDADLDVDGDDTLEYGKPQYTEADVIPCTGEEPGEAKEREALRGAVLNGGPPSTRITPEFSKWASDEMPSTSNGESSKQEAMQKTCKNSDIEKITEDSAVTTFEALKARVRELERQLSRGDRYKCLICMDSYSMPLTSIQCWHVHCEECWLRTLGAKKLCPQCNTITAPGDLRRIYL
UniProt Q9H6W3: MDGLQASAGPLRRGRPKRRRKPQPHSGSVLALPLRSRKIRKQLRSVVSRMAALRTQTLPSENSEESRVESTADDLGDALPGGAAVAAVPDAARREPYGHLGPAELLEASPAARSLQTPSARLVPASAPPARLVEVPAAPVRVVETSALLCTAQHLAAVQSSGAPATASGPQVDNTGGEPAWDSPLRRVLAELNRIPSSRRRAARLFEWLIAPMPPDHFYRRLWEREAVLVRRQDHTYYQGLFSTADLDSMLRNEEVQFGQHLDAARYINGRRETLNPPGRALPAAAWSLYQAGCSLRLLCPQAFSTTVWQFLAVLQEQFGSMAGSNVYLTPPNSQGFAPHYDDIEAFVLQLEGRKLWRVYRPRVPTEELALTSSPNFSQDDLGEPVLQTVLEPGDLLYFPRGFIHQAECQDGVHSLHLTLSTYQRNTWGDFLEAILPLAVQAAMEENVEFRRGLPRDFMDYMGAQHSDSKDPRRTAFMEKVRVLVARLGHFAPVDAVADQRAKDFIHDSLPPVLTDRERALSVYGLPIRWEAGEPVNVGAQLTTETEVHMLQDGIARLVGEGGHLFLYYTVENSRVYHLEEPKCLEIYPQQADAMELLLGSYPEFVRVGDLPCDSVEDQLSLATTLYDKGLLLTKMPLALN
UniProt Q96DB5: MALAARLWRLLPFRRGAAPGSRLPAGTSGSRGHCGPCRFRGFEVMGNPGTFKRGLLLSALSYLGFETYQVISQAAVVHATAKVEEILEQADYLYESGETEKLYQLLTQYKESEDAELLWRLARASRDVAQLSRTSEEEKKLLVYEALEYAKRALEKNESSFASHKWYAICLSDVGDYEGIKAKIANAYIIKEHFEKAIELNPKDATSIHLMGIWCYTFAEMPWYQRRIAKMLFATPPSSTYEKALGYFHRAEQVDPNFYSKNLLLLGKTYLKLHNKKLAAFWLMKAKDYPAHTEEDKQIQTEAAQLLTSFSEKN
UniProt Q96DM3: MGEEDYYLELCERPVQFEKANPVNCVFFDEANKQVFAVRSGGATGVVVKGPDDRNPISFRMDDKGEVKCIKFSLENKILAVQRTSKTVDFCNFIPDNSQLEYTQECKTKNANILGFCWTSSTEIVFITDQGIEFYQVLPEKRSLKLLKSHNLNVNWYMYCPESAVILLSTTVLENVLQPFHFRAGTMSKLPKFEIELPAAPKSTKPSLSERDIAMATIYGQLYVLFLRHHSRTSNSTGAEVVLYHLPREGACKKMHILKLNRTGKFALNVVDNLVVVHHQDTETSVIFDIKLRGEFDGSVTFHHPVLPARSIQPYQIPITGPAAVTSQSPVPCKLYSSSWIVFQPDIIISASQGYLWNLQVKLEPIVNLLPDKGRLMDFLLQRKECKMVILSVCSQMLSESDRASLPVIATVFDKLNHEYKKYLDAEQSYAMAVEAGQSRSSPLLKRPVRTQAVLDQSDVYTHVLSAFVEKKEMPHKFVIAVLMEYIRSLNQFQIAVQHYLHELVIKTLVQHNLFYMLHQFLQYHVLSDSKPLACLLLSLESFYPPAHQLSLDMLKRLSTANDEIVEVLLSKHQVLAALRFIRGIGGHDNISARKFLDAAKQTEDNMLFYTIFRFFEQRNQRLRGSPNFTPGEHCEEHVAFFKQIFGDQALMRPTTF
UniProt Q8WVD5: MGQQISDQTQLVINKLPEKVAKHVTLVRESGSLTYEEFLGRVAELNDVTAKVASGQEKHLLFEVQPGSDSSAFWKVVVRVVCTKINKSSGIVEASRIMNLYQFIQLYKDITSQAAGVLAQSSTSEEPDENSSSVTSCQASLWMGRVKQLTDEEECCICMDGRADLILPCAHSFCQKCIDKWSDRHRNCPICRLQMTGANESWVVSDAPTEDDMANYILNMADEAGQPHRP
UniProt Q9NVN3: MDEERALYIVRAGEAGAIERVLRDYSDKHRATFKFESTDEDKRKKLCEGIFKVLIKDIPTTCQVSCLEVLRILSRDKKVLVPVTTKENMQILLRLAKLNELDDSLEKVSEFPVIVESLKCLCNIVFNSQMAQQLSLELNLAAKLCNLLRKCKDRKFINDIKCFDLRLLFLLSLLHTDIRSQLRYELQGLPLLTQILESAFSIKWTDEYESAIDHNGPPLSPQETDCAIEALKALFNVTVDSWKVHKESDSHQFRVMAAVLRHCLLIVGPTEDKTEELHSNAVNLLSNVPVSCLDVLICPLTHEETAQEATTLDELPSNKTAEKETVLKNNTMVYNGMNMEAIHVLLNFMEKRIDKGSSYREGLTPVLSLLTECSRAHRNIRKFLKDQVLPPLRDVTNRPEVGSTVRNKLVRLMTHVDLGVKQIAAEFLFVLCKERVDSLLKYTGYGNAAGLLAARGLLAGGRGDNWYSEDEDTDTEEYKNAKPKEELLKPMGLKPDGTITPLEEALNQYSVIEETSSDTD
UniProt Q9BQY4: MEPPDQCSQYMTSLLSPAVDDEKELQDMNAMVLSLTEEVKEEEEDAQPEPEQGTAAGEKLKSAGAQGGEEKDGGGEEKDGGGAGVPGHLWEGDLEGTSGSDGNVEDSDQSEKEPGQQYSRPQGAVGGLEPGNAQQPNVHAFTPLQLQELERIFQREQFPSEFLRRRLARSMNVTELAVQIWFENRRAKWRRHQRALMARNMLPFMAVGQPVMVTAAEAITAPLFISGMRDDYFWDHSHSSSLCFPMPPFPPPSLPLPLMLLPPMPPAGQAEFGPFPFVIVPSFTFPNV
UniProt Q8TA86: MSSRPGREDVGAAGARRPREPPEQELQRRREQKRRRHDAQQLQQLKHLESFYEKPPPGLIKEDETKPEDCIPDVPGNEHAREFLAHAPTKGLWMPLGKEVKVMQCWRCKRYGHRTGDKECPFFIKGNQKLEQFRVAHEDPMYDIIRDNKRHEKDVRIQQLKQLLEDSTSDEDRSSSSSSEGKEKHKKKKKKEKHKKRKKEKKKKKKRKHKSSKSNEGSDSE
UniProt Q9HAU8: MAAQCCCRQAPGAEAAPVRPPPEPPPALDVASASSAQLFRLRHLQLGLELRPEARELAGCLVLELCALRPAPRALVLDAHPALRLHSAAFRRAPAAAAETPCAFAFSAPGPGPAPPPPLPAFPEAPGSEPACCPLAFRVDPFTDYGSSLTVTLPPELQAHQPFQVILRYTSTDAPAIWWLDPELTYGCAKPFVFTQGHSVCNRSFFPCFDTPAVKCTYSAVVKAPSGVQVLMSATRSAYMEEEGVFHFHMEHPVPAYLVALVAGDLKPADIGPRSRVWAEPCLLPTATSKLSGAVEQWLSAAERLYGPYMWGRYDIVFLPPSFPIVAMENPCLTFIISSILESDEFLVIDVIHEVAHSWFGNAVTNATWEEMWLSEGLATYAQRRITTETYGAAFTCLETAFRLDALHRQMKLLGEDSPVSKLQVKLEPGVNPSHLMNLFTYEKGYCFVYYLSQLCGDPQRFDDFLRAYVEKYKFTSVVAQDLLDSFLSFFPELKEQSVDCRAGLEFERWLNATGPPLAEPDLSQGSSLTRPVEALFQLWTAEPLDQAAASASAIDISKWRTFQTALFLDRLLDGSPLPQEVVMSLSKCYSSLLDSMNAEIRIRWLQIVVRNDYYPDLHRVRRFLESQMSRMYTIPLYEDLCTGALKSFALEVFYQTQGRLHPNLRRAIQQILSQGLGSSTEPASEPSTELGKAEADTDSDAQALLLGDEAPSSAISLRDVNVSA
UniProt Q8TDP1: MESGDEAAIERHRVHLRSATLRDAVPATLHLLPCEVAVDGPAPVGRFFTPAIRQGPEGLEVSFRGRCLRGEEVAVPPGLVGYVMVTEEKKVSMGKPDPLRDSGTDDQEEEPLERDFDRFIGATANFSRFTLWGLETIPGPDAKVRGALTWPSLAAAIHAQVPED
UniProt Q5TA31: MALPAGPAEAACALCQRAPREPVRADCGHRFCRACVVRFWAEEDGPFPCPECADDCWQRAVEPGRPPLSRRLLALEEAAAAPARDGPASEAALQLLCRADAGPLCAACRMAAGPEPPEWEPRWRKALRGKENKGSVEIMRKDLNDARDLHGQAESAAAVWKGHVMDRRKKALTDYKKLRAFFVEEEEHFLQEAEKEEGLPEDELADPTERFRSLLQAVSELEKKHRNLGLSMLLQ
UniProt Q99496: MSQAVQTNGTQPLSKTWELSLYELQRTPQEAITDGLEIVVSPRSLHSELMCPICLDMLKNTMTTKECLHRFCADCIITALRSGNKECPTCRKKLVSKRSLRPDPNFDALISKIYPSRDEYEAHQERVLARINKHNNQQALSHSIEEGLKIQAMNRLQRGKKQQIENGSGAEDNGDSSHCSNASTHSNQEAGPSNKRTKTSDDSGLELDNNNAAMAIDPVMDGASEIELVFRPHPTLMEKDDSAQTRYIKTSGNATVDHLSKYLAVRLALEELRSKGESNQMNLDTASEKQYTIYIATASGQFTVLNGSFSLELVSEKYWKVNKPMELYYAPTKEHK

Compound in test [1]: CCCS(=O)(=O)Nc1ccc(F)c(C(=O)c2c[nH]c3ncc(Cl)cc23)c1F
A digest of the protocol:
as §1

Compound in another test: CCN(CCCOc1ccc2c(Nc3cc(CC(=O)Nc4cccc(F)c4)[nH]n3)ncnc2c1)CCOP(=O)(O)O [barasertib]
A digest of the protocol:
as §1

Compound in test [2]: CC[C@@H]1C(=O)N(C)c2cnc(Nc3ccc(C(=O)NC4CCN(C)CC4)cc3OC)nc2N1C1CCCC1
A digest of the protocol:
as §1

Compound in another test: CC[C@@H]1C(=O)N(C)c2cnc(Nc3ccc(C(=O)N[C@H]4CC[C@H](N5CCN(CC6CC6)CC5)CC4)cc3OC)nc2N1C(C)C [volasertib]
A digest of the protocol: as §1

Compound in test [3]: CCn1c(C(=O)N(C2CC2)C2CC2)cc2c3c(ncn3C)c(Nc3cc(C)n(C)n3)nc21
A digest of the protocol:
as §1

Compound in test [4]: CCn1cc(-c2ccnc3[nH]c(-c4cccc(CN(C)C)c4)cc23)c(-c2ccc(NC(=O)N(C)C)cc2)n1
A digest of the protocol:
as §1

Compound in test [5]: CN1CCC(CNc2ccc3ncc(-c4cccc(OC(F)(F)F)c4)n3n2)CC1
A digest of the protocol:
as §1

Compound in the next test: CN1CCN(CCOc2cc(OC3CCOCC3)c3c(Nc4c(Cl)ccc5c4OCO5)ncnc3c2)CC1 [saracatinib]
A digest of the protocol:
as §1

Compound in a further test: CN1CCN(c2nc(C3=C(c4c[nH]c5ccccc45)C(=O)NC3=O)c3ccccc3n2)CC1 [sotrastaurin]
The procedure, abridged: as §1

Some of the results follow.

RIPK2 (UniProt O43353): the log2 fold change with vemurafenib is inactive: 0.093; in test [1] it was inactive: 0.078; with barasertib it was inactive: -0.007; in test [2], inactive: 0.037; with volasertib, inactive: 0.025; in test [3], inactive: -0.006. Also, the log2 fold change is inactive: 0.169 in test [4], inactive: -0.061 in test [5], inactive: 0.067 with saracatinib and inactive: -0.012 with sotrastaurin.
For RPL11 (UniProt P62913), the log2 fold change with vemurafenib was inactive: 0.038; in test [1] it was inactive: -0.011; in the test with barasertib, inactive: -0.029; in test [2], inactive: 0.022; in the test with volasertib, inactive: -0.043; in test [3], inactive: -0.023. Further, the log2 fold change was inactive: -0.032 in test [4], inactive: 0.001 in test [5], inactive: -0.003 with saracatinib and inactive: 0.031 with sotrastaurin.
As for RNF220 (UniProt Q5VTB9), the log2 fold change with vemurafenib was inactive: 0.041; in [1], inactive: 0.057; with barasertib, inactive: 0.041; in test [2], inactive: 0.037; with volasertib, inactive: -0.046; in test [3], inactive: -0.049. Besides, the log2 fold change in test [4] was inactive: -0.012; in [5], inactive: 0.04; with saracatinib, inactive: 0; in the test with sotrastaurin, inactive: -0.013.
With RPL14 (UniProt P50914), the log2 fold change was inactive: -0.034 with vemurafenib; inactive: -0.002 in test [1]; inactive: -0.017 with barasertib; inactive: 0.013 in test [2]; inactive: -0.031 with volasertib; inactive: 0.021 in test [3]. For the same target, the log2 fold change was inactive: 0.032 in [4], inactive: 0.02 in test [5], inactive: -0.022 in the test with saracatinib and inactive: -0.12 in the test with sotrastaurin.
Regarding RIOX1 (UniProt Q9H6W3), the log2 fold change with vemurafenib was inactive: -0.185; in test [1], inactive: -0.097; in test [2] it was inactive: -0.274; with volasertib it was inactive: 0.15; in [3], inactive: 0.034; in [4], inactive: -0.155. In addition, the log2 fold change is inactive: -0.01 in test [5], inactive: 0.014 in the test with saracatinib and inactive: 0.059 in the test with sotrastaurin.
RMDN1 (UniProt Q96DB5): the log2 fold change was inactive: 0.032 in the test with vemurafenib; inactive: -0.01 in test [1]; inactive: 0.017 in the test with barasertib; inactive: -0.006 in [2]; inactive: -0.017 in the test with volasertib; inactive: 0.02 in test [3]. The log2 fold change in [4] was inactive: 0.01; in test [5], inactive: -0.08; with saracatinib, inactive: 0.006; with sotrastaurin, inactive: -0.013.
With RMC1 (UniProt Q96DM3), the log2 fold change with vemurafenib is inactive: 0.009; in [1], inactive: 0.029; with barasertib it was inactive: 0.003; in [2], inactive: 0.028; with volasertib it was inactive: -0.044; in [3], inactive: -0.02. Moreover, the log2 fold change in test [4] was inactive: 0; in test [5] it was inactive: 0.024; with saracatinib it was inactive: 0.018; in the test with sotrastaurin, inactive: -0.015.
RNF141 (UniProt Q8WVD5): the log2 fold change with vemurafenib is inactive: -0.051; in [1], inactive: 0; with barasertib, inactive: -0.01; in test [2] it was inactive: 0.084; in the test with volasertib, inactive: 0.035; in [3] it was inactive: -0.009. The log2 fold change in test [4] was inactive: 0.001; in test [5] it was inactive: 0.026; in the test with saracatinib, inactive: 0.007; with sotrastaurin, inactive: 0.158.
Turning to RIC8B isoform 1 (UniProt Q9NVN3), the log2 fold change in the test with vemurafenib was inactive: 0.019; in test [1], inactive: 0.04; in the test with barasertib it was inactive: 0.037; in [2], inactive: -0.022; with volasertib it was inactive: -0.02; in [3] it was inactive: -0.008. The log2 fold change in test [4] was inactive: 0.004; in [5], inactive: -0.031; with saracatinib, inactive: 0.038; in the test with sotrastaurin it was inactive: -0.006.
As for RHOXF2 (UniProt Q9BQY4), the log2 fold change in the test with vemurafenib was inactive: 0.069; in [1], inactive: -0.032; in the test with barasertib it was inactive: 0.047; in test [2], inactive: 0.145; in the test with volasertib, inactive: 0.036; in [3], inactive: -0.049. Besides, the log2 fold change in test [4] was inactive: -0.241; in test [5] it was inactive: -0.083; with saracatinib, inactive: 0.055; with sotrastaurin it was inactive: -0.01.
Take RP9 (UniProt Q8TA86): the log2 fold change was inactive: -0.043 in the test with vemurafenib; inactive: 0.033 in [1]; inactive: -0.022 with volasertib; inactive: 0.251 in [4]; inactive: 0.027 in test [5]; inactive: -0.103 with saracatinib. The log2 fold change with sotrastaurin is inactive: 0.049.
As for RNPEPL1 (UniProt Q9HAU8), the log2 fold change with vemurafenib is inactive: 0.086; in test [1] it was inactive: -0.218; with volasertib it was inactive: 0.207; in test [3] it was inactive: -0.11; in [4], inactive: 0.052; in test [5], inactive: -0.011. Besides, the log2 fold change was inactive: -0.038 with saracatinib and inactive: 0.06 in the test with sotrastaurin.
As to RNASEH2C (UniProt Q8TDP1), the log2 fold change with vemurafenib is inactive: 0.008; in [1] it was inactive: -0.012; with barasertib, inactive: 0.042; in test [2], inactive: -0.048; in the test with volasertib, inactive: 0; in test [3], inactive: 0.059. Also, the log2 fold change in test [4] was inactive: -0.208; in [5] it was inactive: 0.017; with saracatinib, inactive: 0.01; with sotrastaurin, inactive: 0.021.
As for RNF187 (UniProt Q5TA31), the log2 fold change with vemurafenib is inactive: 0.07; in the test with barasertib, inactive: 0.003; in test [2], inactive: 0.034; in test [3], inactive: 0.058; in [4] it was inactive: -0.051; in [5] it was inactive: 0.035. The results for the log2 fold change in the test with saracatinib and with sotrastaurin were inactive: 0.075 and inactive: 0.01, respectively.
On to RNF2 (UniProt Q99496), for which the log2 fold change is inactive: -0.03 with vemurafenib; inactive: -0.03 in test [2]; inactive: 0.061 in test [3]; active: 0.557 in test [4]; active: -0.399 in test [5]; inactive: -0.004 with saracatinib. The log2 fold change with sotrastaurin is inactive: -0.002.
In the case of RPL22L1 (UniProt Q6P5R6), the log2 fold change with barasertib is inactive: -0.056; in [2], inactive: 0.477; in test [3], inactive: 0.139; with saracatinib, inactive: -1.36.

For the origin of these results see the supplement of paper PMC10849652.
